Test results from PubChem BioAssay AID2685 (National Center for Advancing Translational Sciences (NCATS), 2010).
Some of the results follow. These are further read-outs of the screen, such as a control signal, another cell line or another target. No call is given for them. The list favours compounds with an active or inconclusive main result. Potencies come from curve fits of mixed quality, noted in brackets.

Experiment: qHTS Assay for Lipid Storage Modulators in Drosophila S3 Cells;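 for cell number change: cells counted by Cell Tracker Red CMTPX staining in the red channel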
Details: BODIPY lipid droplet fluorescence, 18-24 h; for cell number change: measured here: cell count max response, cells fed with added oleic acid
Outline: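 Drosophila S3 cells got compounds at several concentrations plus oleic acid (400 uM solution). Laser-scanning cytometry with 488 nm excitation read lipid droplets at 500-530 nm and cells at 575-640 nm. Percent activity was relative to 20 uM Triacsin C.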

[1] = measured here: cell number channel AC50, cells fed with added oleic acid
[2] = measured here: lipid fluorescence (Fed channel) AC50, cells fed with added oleic acid

CCOC(=O)c1ccc(-n2c(CN3CCC(O)CC3)nc3ccc([N+](=O)[O-])cc3c2=O)cc1
AC50 [1]: 0.411 µM [rising, full curve, poor fit]

COCCCNc1nc(CC(C)C)nc2c1nnn2Cc1ccccc1
cell number change: -4.01%
AC50 [2]: 3.26 µM [rising, partial curve, poor fit]

CN(C)CCCN(C(=O)c1cc(-c2cccs2)nc2ccccc12)c1nc2ccc(F)cc2s1
cell number change: -11.2%
AC50 [2]: 3.66 µM [rising, partial curve]

C1CCN=C(Nc2nn[nH]n2)CC1
cell number change: 8.79%
AC50 [2]: 0.651 µM [falling, single point]

CC1CCc2c(sc3nc(CN4CCOCC4)nc(Sc4ccccc4)c23)C1 (centres undefined)
cell number change: -0.297%

Cc1cc2c(cc1C)NC1(C(=O)Nc3ccccc31)C1=C(CC(C)(C)CC1=O)N2 (centres undefined)
AC50 [1]: 6.51 µM [falling, single point]
AC50 [2]: 16.4 µM [falling, partial curve, poor fit]

O=C(/C=C/c1cnc2ccccc2n1)NC1CCCCCC1
cell number change: 10.4%
AC50 [1]: 0.00461 µM [falling, full curve, poor fit]
AC50 [2]: 1.3 µM [rising, full curve]

CC1CCCN(C(c2cccs2)c2nnnn2Cc2ccccc2)C1 (centres undefined)
cell number change: 134%
AC50 [1]: 29.1 µM [rising, single point]

COc1cccc(N2CCN(c3ccc4nnc(CCC(=O)Nc5cc(C)ccn5)n4n3)CC2)c1
cell number change: -26.2%

COc1ccc(CCN2C(=O)CN(Cc3ccccc3)CC2=O)cc1OC
cell number change: -0.894%
AC50 [2]: 16.4 µM [rising, partial curve]

CN(CC(=O)Nc1ccccc1C(F)(F)F)C(=O)CSc1nnnn1C
AC50 [2]: 0.259 µM [falling, partial curve]

CCc1cc2cc(OC)ccc2nc1SCC(=O)Nc1cc(OC)c(OC)cc1C(=O)O
cell number change: 8.37%

CCC1CN(C(=O)NCc2ccc(F)cc2)c2cc(Cl)ccc2O1 (centres undefined)
cell number change: -38.7%
AC50 [2]: 29.1 µM [falling, single point]

Fc1ccc(Oc2nccc(-c3ccc(Cl)cc3)n2)cc1
cell number change: -12.6%
AC50 [2]: 29.1 µM [falling, single point]

c1ccc2c(c1)nc(CN1CCOCC1)n1c3ccccc3nc21
AC50 [1]: 0.164 µM [rising, full curve, poor fit]
AC50 [2]: 0.291 µM [rising, partial curve, poor fit]

CCOC(=O)c1c(C)[nH]c(C)c1S(=O)(=O)N(C)CC(=O)NCc1ccc(C)cc1
cell number change: -12.5%
AC50 [2]: 6.51 µM [rising, partial curve, poor fit]

Cc1cccc(OCC(O)Cn2c(=N)n(CCN3CCOCC3)c3ccccc32)c1 (centres undefined)
cell number change: 8.92%
